Drawing on publication PMC4632003, this text covers binding for one molecule.

No constants are given. Whether binding was seen depends on the method and setting. Binding seen in cells or lysates may run through a third protein. Here binding means that the protein was enriched with, or labelled near, the bait; the list need not be complete.

In experiment [1] the target is T1, CHCHD6 (human (endogenous in HeLa)) (UniProt Q9BRQ6).
T1 sequence: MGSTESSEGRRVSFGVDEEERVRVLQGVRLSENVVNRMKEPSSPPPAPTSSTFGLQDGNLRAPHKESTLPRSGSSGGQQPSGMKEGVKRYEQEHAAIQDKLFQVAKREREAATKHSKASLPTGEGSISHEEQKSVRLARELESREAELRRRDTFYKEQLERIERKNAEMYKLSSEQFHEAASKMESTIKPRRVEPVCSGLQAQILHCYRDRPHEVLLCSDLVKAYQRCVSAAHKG
In words: affinity purification with mass spectrometry; IP of endogenous Mitofilin or CHCHD6 from HeLa lysate with antibody crosslinked to protein A Sepharose beads, overnight at 4 °C, washed with cold PBS; TCA-precipitated immunoprecipitates analysed by LC-MS/MS.

In experiment [2] the target is T2, Mitofilin (human (endogenous in HeLa)) (UniProt Q16891).
T2 sequence: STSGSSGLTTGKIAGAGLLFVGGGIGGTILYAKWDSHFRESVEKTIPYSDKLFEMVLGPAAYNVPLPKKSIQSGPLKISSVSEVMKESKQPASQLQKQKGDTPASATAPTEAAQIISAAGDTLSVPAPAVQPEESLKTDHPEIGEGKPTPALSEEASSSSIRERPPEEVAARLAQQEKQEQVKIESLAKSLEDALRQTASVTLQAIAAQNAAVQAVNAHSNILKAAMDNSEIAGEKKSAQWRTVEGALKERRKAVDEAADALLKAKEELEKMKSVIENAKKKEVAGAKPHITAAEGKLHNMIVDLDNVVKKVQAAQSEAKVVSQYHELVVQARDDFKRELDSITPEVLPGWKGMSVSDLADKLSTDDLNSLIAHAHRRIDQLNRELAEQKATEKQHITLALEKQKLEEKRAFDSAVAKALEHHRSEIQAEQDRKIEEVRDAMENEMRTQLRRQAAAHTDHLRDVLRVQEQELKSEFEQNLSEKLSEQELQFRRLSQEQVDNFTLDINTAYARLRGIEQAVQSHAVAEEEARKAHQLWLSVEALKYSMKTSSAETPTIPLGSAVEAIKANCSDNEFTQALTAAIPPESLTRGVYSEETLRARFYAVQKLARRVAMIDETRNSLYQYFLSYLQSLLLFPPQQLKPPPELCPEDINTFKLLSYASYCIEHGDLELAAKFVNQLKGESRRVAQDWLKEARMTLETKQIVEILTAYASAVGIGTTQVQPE
The description is as above.

B1: Sam50 (protein, UniProt Q9Y512 1-469)
chain: MGTVHARSLEPLPSSGPDFGGLGEEAEFVEVEPEAKQEILENKDVVVQHVHFDGLGRTKDDIIICEIGDVFKAKNLIEVMRKSHEAREKLLRLGIFRQVDVLIDTCQGDDALPNGLDVTFEVTELRRLTGSYNTMVGNNEGSMVLGLKLPNLLGRAEKVTFQFSYGTKETSYGLSFFKPRPGNFERNFSVNLYKVTGQFPWSSLRETDRGMSAEYSFPIWKTSHTVKWEGVWRELGCLSRTASFAVRKESGHSLKSSLSHAMVIDSRNSSILPRRGALLKVNQELAGYTGGDVSFIKEDFELQLNKQLIFDSVFSASFWGGMLVPIGDKPSSIADRFYLGGPTSIRGFSMHSIGPQSEGDYLGGEAYWAGGLHLYTPLPFRPGQGGFGELFRTHFFLNAGNLCNLNYGEGPKAHIRKLAECIRWSYGAGIVLRLGNIARLELNYCVPMGVQTGDRICDGVQFGAGIRFL
B1: the binding entry in experiment [1] and in experiment [2] was “binds” in each case.
